Source: publication PMC7909379
These are yes or no findings as the source states them, for the method shown. Binding seen in cells or lysates may run through a third protein. Some results given as binding are weak or reduced against the parent protein; the word gives no strength.

Amino acid sequences for entries named in this document (tags omitted).
UniProt Q6Y1S1: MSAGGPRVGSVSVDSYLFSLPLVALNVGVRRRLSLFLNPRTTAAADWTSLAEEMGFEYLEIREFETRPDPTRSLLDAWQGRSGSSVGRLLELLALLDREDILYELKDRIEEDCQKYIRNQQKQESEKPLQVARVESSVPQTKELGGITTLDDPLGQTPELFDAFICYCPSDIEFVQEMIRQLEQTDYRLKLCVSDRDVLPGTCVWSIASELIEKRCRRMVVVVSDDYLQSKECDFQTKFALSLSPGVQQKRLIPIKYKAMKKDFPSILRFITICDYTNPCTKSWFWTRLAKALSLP

Target: myeloid differentiation primary response 88 (MyD88) (rat (endogenous in P rat nucleus accumbens)) (UniProt Q6Y1S1)
Experiment: co-IP; protein extracts from the NAc of male and female P rats given 3α,5α-THP (15 mg/kg, IP, 30 min) or vehicle; immunoprecipitated with antibody to MyD88 or TRIF, immunoblotted for TLR4 or TLR7 (TLR7 in females only); normal IgG as immunoprecipitation control

B1: toll-like receptor 4 (TLR4) (receptor, UniProt Q9QX05 26-835)
chain: NPCIEVLPNITYQCMDQNLSKIPHDIPYSTKNLDLSFNPLKILRSYSFTNFSQLQWLDLSRCEIETIEDKAWHGLNQLSTLVLTGNPIKSFSPGSFSGLTNLENLVAVETKMTSLEGFHIGQLISLKKLNVAHNLIHSFKLPEYFSNLTNLEHVDLSYNYIQTISVKDLQFLRENPQVNLSLDLSLNPIDSIQAQAFQGIRLHELTLRSNFNSSNVLKMCLQNMTGLHVHRLILGEFKNERNLESFDRSVMEGLCNVSIDEFRLTYINHFSDDIYNLNCLANISAMSFTGVHIKHIADVPRHFKWQSLSIIRCHLKPFPKLSLPFLKSWTLTTNREDISFGQLALPSLRYLDLSRNAMSFRGCCSYSDFGTNNLKYLDLSFNGVILMSANFMGLEELEYLDFQHSTLKKVTEFSVFLSLEKLLYLDISYTNTKIDFDGIFLGLISLNTLKMAGNSFKDNTLSNVFTNTTNLTFLDLSKCQLEQISRGVFDTLYRLQLLNMSHNNLLFLDPSHYKQLYSLRTLDCSFNRIETSKGILQHFPKSLAVFNLTNNSVACICEYQNFLQWVKDQKMFLVNVEQMKCASPIDMKASLVLDFTNSTCYIYKTIISVSVVSVLVVATVAFLIYHFYFHLILIAGCKKYSRGESIYDAFVIYSSQNEDWVRNELVKNLEEGVPRFQLCLHYRDFIPGVAIAANIIQEGFHKSRKVIVVVSRHFIQSRWCIFEYEIAQTWQFLSSRSGIIFIVLEKVEKSLLRQQVELYRLLSRNTYLEWEDNALGRHIFWRRLKKALLDGKALNPDETSEEEQEATTLT
B1 was tested, and the binding was “binds”.
